According to paper PMC7862700:
Only a part is listed here, and it is no random draw. At the low end of the ranking the order means little.

By UniProt entry, the sequences of proteins in these tests, tags left out. Where a name states a change or a piece, a line headed by the entry shows the natural chain unless it says otherwise.
UniProt Q01892: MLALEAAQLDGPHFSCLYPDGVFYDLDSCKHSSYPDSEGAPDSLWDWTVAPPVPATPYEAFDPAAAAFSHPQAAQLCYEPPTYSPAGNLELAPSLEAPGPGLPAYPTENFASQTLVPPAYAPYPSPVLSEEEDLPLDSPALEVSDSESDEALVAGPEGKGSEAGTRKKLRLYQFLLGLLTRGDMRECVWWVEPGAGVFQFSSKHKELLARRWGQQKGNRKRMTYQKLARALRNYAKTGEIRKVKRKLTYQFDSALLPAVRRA
UniProt P41161: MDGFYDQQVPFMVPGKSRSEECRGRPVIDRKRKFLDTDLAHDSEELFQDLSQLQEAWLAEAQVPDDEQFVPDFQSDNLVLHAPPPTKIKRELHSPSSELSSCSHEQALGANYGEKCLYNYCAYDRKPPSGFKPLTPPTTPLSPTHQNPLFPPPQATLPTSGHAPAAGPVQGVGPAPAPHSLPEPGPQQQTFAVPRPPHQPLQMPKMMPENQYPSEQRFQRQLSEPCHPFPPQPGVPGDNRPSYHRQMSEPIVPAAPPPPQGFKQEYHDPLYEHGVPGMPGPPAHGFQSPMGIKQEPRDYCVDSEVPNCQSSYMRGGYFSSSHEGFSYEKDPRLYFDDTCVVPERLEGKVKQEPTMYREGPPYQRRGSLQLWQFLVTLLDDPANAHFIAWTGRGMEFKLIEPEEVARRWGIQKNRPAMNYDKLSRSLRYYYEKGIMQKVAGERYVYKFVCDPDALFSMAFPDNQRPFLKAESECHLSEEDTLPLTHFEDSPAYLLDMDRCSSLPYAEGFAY
UniProt Q99607: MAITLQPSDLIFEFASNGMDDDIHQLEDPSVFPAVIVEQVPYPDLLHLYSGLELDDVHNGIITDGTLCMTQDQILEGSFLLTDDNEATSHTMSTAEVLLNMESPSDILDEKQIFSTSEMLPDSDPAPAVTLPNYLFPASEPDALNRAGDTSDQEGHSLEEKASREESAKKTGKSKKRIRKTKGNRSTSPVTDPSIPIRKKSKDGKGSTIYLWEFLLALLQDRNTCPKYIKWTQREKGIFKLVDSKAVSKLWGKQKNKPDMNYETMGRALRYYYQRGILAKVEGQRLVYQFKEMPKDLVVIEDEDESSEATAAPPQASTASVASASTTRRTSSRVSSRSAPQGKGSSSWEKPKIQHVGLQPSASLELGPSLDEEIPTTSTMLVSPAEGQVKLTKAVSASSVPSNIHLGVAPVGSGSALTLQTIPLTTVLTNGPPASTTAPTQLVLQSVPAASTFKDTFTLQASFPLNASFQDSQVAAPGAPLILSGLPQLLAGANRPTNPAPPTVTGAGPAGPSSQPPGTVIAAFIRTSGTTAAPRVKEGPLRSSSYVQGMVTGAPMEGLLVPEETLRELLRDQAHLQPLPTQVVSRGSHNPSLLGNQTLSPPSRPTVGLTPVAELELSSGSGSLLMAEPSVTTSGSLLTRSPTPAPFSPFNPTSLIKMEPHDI

What was measured:
Experiment in all cases: DAPPL (digital affinity profiling via proximity ligation, sequencing)
Conditions in all cases: 10 mM Tris-HCl pH 7.5, 50 mM NaCl, 1 mM DTT, 4% glycerol, room temperature, 30 min; GST-TFs on glutathione beads, 16-mer random dsDNA library, 0.1% …; high values mean tight binding; double strand, one strand shown; scale: fold enrichment (6-mer frequency, TF over GST control)
FLI1 = molecular target: T1, FLI1 (UniProt Q01543)
T1 sequence: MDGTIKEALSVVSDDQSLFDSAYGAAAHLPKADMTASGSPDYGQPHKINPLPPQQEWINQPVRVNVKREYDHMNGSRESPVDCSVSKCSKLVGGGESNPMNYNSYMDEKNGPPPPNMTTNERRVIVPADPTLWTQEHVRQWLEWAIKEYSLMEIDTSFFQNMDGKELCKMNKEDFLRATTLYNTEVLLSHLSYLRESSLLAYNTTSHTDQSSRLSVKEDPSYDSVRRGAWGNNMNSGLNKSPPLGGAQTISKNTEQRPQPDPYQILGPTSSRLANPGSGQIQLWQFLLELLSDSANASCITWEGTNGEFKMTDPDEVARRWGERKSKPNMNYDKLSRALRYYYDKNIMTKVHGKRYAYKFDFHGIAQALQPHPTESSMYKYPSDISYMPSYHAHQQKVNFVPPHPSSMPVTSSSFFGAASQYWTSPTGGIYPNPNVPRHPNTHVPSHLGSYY

EHF = molecular target: T2, EHF (UniProt Q9NZC4)
T2 sequence: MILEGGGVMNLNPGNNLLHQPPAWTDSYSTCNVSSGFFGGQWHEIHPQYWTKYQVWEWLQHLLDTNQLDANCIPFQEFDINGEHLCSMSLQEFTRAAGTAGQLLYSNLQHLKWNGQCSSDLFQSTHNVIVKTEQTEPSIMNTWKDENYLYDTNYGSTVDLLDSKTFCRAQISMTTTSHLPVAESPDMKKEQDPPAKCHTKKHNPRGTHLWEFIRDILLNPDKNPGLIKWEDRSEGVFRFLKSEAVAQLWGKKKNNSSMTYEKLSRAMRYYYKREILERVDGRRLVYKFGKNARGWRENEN

SPIB = SPIB (UniProt Q01892)
ETV5 = ETV5 (UniProt P41161)
ELF4 = ELF4 (UniProt Q99607)
ETV2 = molecular target: T3, ETV2 (UniProt O00321)
T3 sequence: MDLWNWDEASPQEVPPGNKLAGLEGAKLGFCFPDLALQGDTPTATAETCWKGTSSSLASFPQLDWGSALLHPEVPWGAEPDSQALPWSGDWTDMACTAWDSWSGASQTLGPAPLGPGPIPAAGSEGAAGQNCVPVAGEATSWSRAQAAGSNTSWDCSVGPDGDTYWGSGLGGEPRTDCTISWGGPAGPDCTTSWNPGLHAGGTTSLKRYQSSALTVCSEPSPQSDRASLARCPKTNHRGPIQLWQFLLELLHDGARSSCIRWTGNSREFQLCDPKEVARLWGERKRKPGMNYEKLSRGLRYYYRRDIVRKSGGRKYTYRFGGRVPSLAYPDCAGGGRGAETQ

ETV3L = molecular target: T4, ETV3L (UniProt Q6ZN32)
T4 sequence: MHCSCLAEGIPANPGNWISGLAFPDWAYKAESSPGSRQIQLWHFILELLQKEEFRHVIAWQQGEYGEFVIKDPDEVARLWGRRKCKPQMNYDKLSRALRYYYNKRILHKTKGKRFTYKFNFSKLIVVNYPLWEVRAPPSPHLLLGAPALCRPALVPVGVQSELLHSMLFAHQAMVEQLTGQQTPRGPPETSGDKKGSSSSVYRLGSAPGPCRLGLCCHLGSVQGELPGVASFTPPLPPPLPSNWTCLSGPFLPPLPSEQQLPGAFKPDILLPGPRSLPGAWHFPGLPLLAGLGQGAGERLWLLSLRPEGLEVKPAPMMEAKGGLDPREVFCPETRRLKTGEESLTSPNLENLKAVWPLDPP

| Sequence | binding signal (FLI1) | binding signal (EHF) | binding signal (SPIB) | binding signal (ETV5) | binding signal (ELF4) | binding signal (ETV2) | binding signal (ETV3L) |
| --- | --- | --- | --- | --- | --- | --- | --- |
| AGCTTG | 0.983 | 0.942 | 0.922 | 0.991 | 0.819 | 0.958 | 0.885 |
| CGAAGA | 0.799 | 0.726 | 0.745 | 0.811 | 0.795 | 0.931 | 0.8 |
| AGTTTG | 0.989 | 0.878 | 0.942 | 0.901 | 0.915 | 0.942 | 0.933 |
| TGGGAC | 0.995 | 0.886 | 0.89 | 0.985 | 0.935 | 1.14 | 0.912 |
| ATGGGA | 0.904 | 0.964 | 0.879 | 0.918 | 0.874 | 0.836 | 0.885 |
| TTCGGG | 0.953 | 0.875 | 0.892 | 0.859 | 0.929 | 0.706 | 0.982 |
| CTGGGG | 0.766 | 0.801 | 0.763 | 0.819 | 0.776 | 0.879 | 0.836 |
| GAAGGT | 0.806 | 0.881 | 0.924 | 0.889 | 0.816 | 0.775 | 0.848 |
| TGCGTC | 0.985 | 0.973 | 0.992 | 0.898 | 0.936 | 1.04 | 0.949 |
| CAGATC | 0.92 | 0.958 | 0.888 | 0.863 | 0.99 | 1.02 | 0.913 |
| AGGTTC | 0.874 | 0.808 | 0.867 | 0.847 | 0.828 | 0.91 | 0.811 |
| AATCGT | 0.899 | 0.872 | 0.861 | 0.888 | 0.903 | 0.876 | 0.97 |
